Results are given in words; binding and its absence hold for the method and conditions named. Binding seen in cells or lysates may run through a third protein. Some binding calls cover weakened binding; strength is not graded here.
Experiments:
[1] = biological target: BRG1 (human (endogenous in Raji, MLS, EWS and HT1080 cell lines)) (UniProt P51532); experiment: co-IP; BRG1 IP from nuclear extracts of HT1080 with stable expression of FUS-DDIT3-EGFP or DDIT3-EGFP; negative control IgG; immunoblot with antibodies against BRG1 and DDIT3
[2] = biological target: BRG1 (human (endogenous in Raji, MLS, EWS and HT1080 cell lines)) (UniProt P51532); experiment: co-IP; BRG1 IP quantification: 100 ug nuclear extract of MLS 402-91 or EWS TC-71, Benzonase during cell disruption, washes in IP wash buffer (150 mM KCl), LDS elution; immunoblot of input, bound and non-bound fractions
[3] = biological target: BRG1 (human (endogenous in Raji, MLS, EWS and HT1080 cell lines)) (UniProt P51532); experiment: co-IP; biotinylated anti-BRG1 antibody and streptavidin Dynabeads on nuclear extracts of MLS 402-91, MLS 2645-94, EWS TC-71 and EWS IOR/CAR; elution with 1% formic acid, then with LDS sample buffer; immunoblot
[4] = biological target: BRG1 (human (endogenous in Raji, MLS, EWS and HT1080 cell lines)) (UniProt P51532); experiment: co-IP; BRG1 IP quantification from nuclear extracts of HT1080 24 h after transient transfection with FUS-DDIT3-dsRED/-EGFP, EWSR1-FLI1-EGFP or dsRED/EGFP alone; immunoblot of input, bound and non-bound fractions
[5] = biological target: BRG1 (human (endogenous in Raji, MLS, EWS and HT1080 cell lines)) (UniProt P51532); experiment: proximity ligation; in situ PLA (Duolink) on formaldehyde-fixed MLS cell lines 2645-94 and 402-91 with pairs of primary antibodies against BRG1 or ARID1A and DDIT3 or the C-terminal part of FUS; controls with one primary antibody omitted
[6] = biological target: ARID1A (human (endogenous in Raji, MLS and EWS cell lines)) (UniProt O14497); experiment: as above

The chains behind the UniProt entries cited, without tags or fusion partners.
UniProt P51532: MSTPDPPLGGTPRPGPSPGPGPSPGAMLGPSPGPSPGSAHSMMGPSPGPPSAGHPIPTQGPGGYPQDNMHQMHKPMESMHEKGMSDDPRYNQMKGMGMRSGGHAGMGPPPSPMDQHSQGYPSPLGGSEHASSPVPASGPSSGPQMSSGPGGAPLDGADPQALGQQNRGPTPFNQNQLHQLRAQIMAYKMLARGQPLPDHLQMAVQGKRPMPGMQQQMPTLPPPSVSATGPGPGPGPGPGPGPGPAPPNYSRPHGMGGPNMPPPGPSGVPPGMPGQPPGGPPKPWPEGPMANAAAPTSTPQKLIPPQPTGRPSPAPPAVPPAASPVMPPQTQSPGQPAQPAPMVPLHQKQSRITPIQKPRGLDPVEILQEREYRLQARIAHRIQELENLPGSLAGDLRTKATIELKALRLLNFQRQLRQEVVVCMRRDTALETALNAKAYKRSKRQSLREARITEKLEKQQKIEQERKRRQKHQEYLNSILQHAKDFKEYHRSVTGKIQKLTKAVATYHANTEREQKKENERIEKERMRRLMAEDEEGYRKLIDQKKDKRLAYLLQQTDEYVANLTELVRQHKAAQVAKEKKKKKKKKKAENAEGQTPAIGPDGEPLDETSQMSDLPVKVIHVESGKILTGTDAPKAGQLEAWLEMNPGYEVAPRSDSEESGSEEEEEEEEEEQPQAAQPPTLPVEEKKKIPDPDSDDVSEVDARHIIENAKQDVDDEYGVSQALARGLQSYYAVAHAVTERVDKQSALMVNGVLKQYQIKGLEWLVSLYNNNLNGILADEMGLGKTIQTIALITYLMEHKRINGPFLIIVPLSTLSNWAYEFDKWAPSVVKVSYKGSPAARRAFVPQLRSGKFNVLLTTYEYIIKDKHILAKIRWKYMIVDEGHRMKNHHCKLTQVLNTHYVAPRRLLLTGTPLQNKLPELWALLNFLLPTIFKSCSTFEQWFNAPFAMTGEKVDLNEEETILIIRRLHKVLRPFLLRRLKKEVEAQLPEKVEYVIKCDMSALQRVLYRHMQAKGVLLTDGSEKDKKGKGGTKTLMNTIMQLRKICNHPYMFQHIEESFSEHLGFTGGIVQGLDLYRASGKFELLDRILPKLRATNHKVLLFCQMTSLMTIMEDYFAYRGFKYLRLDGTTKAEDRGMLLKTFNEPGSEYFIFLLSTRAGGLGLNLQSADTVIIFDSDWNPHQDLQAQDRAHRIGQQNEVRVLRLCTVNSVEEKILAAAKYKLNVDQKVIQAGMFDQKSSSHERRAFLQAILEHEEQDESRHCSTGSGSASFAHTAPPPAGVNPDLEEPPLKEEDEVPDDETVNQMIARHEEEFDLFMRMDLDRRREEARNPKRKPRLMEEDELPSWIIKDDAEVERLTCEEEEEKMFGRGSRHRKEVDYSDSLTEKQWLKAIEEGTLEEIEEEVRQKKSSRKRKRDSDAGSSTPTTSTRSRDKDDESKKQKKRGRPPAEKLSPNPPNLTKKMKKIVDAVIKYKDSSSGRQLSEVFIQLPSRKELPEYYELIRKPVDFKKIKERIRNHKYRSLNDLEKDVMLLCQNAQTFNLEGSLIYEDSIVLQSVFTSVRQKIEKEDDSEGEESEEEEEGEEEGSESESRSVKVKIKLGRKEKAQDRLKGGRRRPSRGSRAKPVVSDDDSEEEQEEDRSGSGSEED
UniProt O14497: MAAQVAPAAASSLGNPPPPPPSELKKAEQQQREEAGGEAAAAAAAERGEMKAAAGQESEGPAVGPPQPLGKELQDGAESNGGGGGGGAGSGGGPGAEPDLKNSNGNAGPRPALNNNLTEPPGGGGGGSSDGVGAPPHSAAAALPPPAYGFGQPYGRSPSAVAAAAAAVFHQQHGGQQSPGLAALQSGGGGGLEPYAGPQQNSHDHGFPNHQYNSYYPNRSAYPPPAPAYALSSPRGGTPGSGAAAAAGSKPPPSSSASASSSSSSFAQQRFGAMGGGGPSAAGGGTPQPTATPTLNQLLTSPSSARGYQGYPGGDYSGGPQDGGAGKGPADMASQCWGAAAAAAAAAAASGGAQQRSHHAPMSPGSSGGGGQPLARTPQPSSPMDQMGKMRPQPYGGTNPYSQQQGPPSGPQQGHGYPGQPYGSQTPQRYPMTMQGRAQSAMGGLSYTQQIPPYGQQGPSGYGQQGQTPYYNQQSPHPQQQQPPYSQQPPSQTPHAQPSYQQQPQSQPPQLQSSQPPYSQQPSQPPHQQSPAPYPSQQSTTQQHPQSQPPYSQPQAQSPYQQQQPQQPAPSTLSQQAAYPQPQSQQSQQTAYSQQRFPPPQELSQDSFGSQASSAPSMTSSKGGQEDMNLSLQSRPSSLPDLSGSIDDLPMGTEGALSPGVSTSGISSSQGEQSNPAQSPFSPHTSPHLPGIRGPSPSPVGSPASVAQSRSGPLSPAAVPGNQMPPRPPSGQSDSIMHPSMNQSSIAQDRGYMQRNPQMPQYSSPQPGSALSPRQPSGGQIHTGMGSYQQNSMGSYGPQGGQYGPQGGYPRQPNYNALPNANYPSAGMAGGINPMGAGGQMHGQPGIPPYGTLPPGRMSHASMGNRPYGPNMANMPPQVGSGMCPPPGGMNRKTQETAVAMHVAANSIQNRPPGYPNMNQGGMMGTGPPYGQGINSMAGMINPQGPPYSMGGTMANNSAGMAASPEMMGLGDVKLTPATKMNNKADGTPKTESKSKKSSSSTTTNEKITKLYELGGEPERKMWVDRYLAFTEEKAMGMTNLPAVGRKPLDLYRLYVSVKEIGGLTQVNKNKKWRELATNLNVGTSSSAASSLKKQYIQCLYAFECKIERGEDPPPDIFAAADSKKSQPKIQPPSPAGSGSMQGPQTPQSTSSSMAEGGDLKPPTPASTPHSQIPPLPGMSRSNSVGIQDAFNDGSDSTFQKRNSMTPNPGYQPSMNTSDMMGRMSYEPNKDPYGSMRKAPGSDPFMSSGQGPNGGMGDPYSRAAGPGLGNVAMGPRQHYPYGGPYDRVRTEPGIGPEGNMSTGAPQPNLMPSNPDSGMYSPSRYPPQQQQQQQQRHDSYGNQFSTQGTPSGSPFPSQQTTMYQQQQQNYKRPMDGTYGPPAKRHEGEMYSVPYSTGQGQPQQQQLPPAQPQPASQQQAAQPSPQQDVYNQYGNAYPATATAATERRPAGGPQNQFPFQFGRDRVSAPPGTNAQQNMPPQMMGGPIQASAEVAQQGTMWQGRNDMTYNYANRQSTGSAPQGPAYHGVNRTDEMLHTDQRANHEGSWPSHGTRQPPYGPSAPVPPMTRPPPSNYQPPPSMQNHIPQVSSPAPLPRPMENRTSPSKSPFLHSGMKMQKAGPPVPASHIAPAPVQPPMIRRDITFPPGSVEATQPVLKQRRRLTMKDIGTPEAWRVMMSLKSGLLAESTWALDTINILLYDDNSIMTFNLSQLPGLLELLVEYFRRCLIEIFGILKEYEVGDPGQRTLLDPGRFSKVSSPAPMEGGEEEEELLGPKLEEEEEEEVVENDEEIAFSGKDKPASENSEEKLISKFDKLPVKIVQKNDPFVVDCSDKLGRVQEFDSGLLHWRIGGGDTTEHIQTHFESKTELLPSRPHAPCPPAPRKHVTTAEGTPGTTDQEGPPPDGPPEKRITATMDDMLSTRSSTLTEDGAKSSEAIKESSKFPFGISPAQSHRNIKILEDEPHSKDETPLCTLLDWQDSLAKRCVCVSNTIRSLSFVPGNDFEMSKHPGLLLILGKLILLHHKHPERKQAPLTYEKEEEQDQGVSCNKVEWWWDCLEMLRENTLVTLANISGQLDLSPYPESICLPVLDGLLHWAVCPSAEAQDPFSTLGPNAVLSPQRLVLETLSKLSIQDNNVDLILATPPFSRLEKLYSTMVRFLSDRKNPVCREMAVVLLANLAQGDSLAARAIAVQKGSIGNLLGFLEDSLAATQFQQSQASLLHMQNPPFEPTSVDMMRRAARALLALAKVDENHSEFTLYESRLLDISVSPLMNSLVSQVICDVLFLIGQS
UniProt P35638: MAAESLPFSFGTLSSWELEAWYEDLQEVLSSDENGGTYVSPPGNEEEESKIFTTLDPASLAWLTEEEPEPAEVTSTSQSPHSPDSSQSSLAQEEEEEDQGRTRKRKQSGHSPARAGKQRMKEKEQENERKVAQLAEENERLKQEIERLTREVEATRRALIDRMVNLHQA
UniProt Q01844: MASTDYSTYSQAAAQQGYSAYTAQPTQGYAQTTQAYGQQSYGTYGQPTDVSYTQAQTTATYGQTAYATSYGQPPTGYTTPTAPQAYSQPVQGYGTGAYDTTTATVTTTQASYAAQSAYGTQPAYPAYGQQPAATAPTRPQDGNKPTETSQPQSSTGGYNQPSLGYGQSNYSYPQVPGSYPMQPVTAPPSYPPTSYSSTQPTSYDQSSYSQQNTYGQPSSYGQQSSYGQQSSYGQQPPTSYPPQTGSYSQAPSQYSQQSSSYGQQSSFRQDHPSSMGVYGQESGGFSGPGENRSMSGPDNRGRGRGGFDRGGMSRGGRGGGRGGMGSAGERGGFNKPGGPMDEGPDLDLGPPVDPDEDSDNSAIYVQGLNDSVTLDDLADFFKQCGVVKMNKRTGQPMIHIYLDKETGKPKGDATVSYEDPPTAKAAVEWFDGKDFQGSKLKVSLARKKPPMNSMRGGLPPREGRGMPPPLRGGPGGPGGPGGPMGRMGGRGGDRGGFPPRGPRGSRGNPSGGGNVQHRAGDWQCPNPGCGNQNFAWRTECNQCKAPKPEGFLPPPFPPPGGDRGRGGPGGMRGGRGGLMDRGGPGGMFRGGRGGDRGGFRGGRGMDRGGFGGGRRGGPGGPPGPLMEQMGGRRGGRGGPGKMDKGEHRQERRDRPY
UniProt P35637: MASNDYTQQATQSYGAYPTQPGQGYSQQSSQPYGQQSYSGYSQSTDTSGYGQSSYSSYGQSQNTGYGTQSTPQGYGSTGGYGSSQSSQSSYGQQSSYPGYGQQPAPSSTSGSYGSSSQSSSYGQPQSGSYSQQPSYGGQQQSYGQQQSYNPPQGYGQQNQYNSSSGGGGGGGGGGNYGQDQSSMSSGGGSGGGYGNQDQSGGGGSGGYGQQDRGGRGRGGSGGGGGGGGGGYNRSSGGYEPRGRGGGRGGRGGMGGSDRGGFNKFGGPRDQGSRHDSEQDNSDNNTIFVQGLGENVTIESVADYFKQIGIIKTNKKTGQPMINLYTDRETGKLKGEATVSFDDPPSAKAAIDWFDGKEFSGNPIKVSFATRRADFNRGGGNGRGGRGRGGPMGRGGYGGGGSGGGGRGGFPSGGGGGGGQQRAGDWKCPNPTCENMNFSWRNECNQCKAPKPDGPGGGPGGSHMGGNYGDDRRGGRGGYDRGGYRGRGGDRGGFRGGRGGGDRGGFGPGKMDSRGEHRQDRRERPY
UniProt Q15532: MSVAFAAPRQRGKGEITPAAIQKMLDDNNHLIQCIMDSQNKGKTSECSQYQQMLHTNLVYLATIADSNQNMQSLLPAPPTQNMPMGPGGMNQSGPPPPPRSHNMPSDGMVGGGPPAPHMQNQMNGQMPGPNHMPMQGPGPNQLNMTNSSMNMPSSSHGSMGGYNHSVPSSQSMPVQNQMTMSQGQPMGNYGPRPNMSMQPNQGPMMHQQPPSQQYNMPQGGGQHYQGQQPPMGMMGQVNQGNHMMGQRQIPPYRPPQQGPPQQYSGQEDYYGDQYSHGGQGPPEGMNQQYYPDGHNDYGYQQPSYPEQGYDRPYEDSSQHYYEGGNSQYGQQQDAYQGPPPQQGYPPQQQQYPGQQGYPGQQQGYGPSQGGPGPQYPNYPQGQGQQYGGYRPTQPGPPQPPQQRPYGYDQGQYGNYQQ

| binding [1] | binding [2] | binding [3] | binding [4] | binding [5] | binding [6] | Substance |
| --- | --- | --- | --- | --- | --- | --- |
| binds weakly | – | – | – | – | – | DDIT3‐EGFP (from UniProt P35638 1-169) |
| – | binds | binds | binds | – | – | EWSR1 (from UniProt Q01844 1-656) |
| – | binds | – | binds | binds | binds | FUS (from UniProt P35637 1-526) |
| – | – | binds | – | – | – | SS18 (from UniProt Q15532 1-418) |
